Results are given in words; binding and its absence hold for the method and conditions named. Binding seen in cells or lysates may run through a third protein. Here binding means that the protein was enriched with, or labelled near, the bait; the list need not be complete.
Molecular target: FLAG-BPLF1, viral ubiquitin deconjugase (vDUB) encoded in the N-terminal domain (aa 1-235) of the Epstein-Barr virus large tegument protein BPLF1 (Epstein-Barr virus) (UniProt P03186)
Assay: affinity purification with mass spectrometry; anti-FLAG immunoprecipitates of cells transfected with FLAG-BPLF1 or FLAG-BPLF1 C61A against FLAG-empty vector, biological duplicates; hits need at least four unique spectral counts; mass spectrometry data previously reported (ref. 43) and reanalysed here

Row | Substance | binding
1 | eIF4E2, translation initiation complex subunit (from UniProt O60573 1-245) | binds
2 | eIF4G1, translation initiation complex subunit (from UniProt Q04637 1-1599) | binds
3 | eIF4G2, translation initiation complex subunit (from UniProt P78344 1-907) | binds
4 | eIF5A, ribosome pause release factor (from UniProt P63241 1-154) | binds

Source: paper PMC10721647
